Laboratory results: article PMC5025166
Results are given in words; binding and its absence hold for the method and conditions named. In cells and extracts the contact can be indirect. Some binding calls cover weakened binding; strength is not graded here.

Protein sequences, listed by entry. Tags and fused reporters are not part of them.
UniProt P63101: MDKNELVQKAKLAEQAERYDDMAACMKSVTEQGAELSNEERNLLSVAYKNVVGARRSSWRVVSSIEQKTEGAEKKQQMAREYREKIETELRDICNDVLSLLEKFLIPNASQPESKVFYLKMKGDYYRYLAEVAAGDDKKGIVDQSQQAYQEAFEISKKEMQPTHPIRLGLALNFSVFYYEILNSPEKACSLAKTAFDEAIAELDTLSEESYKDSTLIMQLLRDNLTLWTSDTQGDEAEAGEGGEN
UniProt Q925T6: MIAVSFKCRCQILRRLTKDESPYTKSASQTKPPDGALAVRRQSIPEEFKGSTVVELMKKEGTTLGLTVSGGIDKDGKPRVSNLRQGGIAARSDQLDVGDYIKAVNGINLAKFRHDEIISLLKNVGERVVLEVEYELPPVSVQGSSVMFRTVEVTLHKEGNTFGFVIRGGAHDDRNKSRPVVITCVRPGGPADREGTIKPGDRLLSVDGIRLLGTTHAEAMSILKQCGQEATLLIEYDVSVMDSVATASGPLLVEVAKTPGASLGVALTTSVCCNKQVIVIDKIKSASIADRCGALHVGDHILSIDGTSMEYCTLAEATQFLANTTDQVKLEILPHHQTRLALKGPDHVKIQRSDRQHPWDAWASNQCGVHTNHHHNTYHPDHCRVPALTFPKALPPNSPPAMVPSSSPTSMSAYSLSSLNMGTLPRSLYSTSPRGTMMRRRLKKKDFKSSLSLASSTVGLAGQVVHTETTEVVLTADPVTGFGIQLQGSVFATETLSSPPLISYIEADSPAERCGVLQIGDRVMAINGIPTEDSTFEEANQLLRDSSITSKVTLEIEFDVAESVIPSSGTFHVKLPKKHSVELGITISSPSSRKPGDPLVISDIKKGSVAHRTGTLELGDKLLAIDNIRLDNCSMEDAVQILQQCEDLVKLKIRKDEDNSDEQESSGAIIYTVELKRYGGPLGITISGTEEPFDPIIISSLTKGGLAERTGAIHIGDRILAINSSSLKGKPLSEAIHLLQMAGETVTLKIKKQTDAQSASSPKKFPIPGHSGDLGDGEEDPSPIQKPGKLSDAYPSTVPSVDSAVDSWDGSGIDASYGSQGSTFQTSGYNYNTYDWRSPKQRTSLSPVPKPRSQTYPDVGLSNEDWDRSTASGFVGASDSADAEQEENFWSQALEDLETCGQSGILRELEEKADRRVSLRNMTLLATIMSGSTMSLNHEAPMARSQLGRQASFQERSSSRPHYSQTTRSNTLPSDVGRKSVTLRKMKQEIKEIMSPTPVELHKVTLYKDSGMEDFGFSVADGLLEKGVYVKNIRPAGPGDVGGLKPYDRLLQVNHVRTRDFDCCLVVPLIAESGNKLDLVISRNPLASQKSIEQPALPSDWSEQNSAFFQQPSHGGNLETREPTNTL

Tests used:
[1] = molecular target: T1, GPIbβ (mouse (endogenous in mouse platelets)) (UniProt P56400); assay: co-IP; NP-40 lysates of washed mouse platelets (WT and GRIP1-/-; resting or after botrocetin and vWF); antibody overnight at 4°C, protein A/G beads, one wash with PBS, Western blot
T1 sequence: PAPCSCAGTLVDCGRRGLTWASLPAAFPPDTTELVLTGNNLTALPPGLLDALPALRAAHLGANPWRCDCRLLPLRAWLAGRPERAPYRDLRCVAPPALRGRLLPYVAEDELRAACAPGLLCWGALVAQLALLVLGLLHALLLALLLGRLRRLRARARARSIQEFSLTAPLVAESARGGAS

[2] = molecular target: 14-3-3ζ (mouse (endogenous in mouse platelets)) (UniProt P63101); assay: as above

Substance: 14-3-3ζ (from UniProt P63101 1-245)
- binding [1]: binds

Substance: Glutamate receptor interacting protein 1 (from UniProt Q925T6 1-1127)
- binding [2]: binds
- binding [1]: binds
